# Patent US20020137684A1, “Ligand for enhancing oral and CNS delivery of biological agents” (priority 2000, published 2002)
# System: Caco-2 monolayers
# Assay: Transport of peroxidase conjugate across Caco-2 monolayers
# Settings: in the presence of the conjugate
# Method: A two-chamber Caco-2 model was used to evaluate the transport of a conjugate comprising peroxidase and a peptide comprising an amino acid sequence of SEQ. ID. NO.:1 across the intestinal barrier (IB) in vitro. […] The medium containing isotope-labeled compound, the SEQ. ID. NO.:1-Peroxidase conjugate ([…]) or Control Peroxidase conjugate ([…]) was added to the apical side of cultured Caco-2 monolayers.
substance,measurement,setting,value
SEQ. ID. NO.:1-Peroxidase Conjugate (CRVLDGDRTRWG; peroxidase conjugate; MOD_RES (1) …ON),"Transport of 3H-Mannitol, P, %",2 hours,6.6%
same,"Transport of 3H-Mannitol, P, %",4 hours,12.4%
